Results on five compounds are retold here after the supplement of paper PMC10037445.

Most of the highest values are listed elsewhere, so they are rarer here than in the full data.

The test system of experiment [1] is RAW-Dual. Put plainly: IRF Lucia reporter activity, fold change vs agonist alone; higher = enhanced IRF activity. Particulars: library stock concentration (final ~1000-fold dilution): 10 mM, cytotoxicity flag (confluency mask): not cytotoxic. The method, boiled down: (§1)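 RAW-Dual macrophages (50,000 cells/well in DMEM, 384-well plates) received 50 nL of library stock by pin tool, then a PRR agonist 1 h later, and were kept at 37 °C, 5% CO2. After 20 hours, supernatant was read for IRF by QuantiLuc luminescence and for NF-κB by QuantiBlue absorbance at 620 nm. Reporter activity is fold change over agonist-alone wells. Cytotoxic wells had IncuCyte confluency below 70% of agonist controls in both mask sets.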

In experiment [2] the test system is RAW-Dual. Put plainly: NF-kB SEAP reporter activity, fold change vs agonist alone; higher = enhanced NF-kB activity. The settings on record: library stock concentration (final ~1000-fold dilution): 10 mM, cytotoxicity flag (confluency mask): not cytotoxic. The method, boiled down:
as §1

Where [3] appears, read: agonist: 3'3'-cGAMP (STING) 10 ug/mL.
The mark [4] stands for this setting: agonist: MPLA (TLR4) 0.25 ug/mL.
Setting [5] is: agonist: Imiquimod (TLR7) 2.5 ug/mL.
The mark [6] stands for this setting: agonist: ODN 1826 (TLR9) 0.5 ug/mL.
[7] abbreviates: agonist: Pam2CSK4 (TLR2/6) 0.1 ug/mL.
The mark [8] stands for this setting: agonist: Pam3CSK4 (TLR2/1) 0.1 ug/mL.

As to `Cc1ccc(C(=O)NCCCCCC(=O)Nc2ccccc2N)cc1`, the entries for the “IRF Lucia reporter activity” value in experiment [1] (setting [3]), in experiment [1] (agonist: LPS (TLR4) 0.1 ug/mL) and in experiment [1] (setting [4]) were 0.12, 0.197 and 0.25, respectively. Besides, the “NF-kB SEAP reporter activity” value in experiment [2] (setting [5]) worked out at 1.28; in experiment [2] (agonist: LPS (TLR4) 0.1 ug/mL), 3.44; in experiment [2] (setting [4]) it was 1.7; in experiment [2] (setting [6]), 1.92; in experiment [2] (setting [7]), 0.778; in experiment [2] (setting [8]), 1.06.
With `Cc1nc2c(-c3cnc(N)nc3)nc(N3CCOCC3)nc2n1C(C)C`, the “IRF Lucia reporter activity” value in experiment [1] (setting [3]) is 0.256; in experiment [1] (agonist: LPS (TLR4) 0.1 ug/mL), 0.756; in experiment [1] (setting [4]), 0.723. The “NF-kB SEAP reporter activity” value came out at 0.792 in experiment [2] (setting [5]); 1.09 in experiment [2] (agonist: LPS (TLR4) 0.1 ug/mL); 1.33 in experiment [2] (setting [4]); 0.59 in experiment [2] (setting [6]); 0.447 in experiment [2] (setting [7]); 0.448 in experiment [2] (setting [8]).
Regarding `Cc1ccccc1-n1c(Cn2nc(-c3cccc(O)c3)c3c(N)ncnc32)nc2cccc(C)c2c1=O`, the “IRF Lucia reporter activity” value in experiment [1] (setting [3]) stood at 0.788; in experiment [1] (agonist: LPS (TLR4) 0.1 ug/mL) it was 1.2; in experiment [1] (setting [4]), 1.16. Further, the “NF-kB SEAP reporter activity” value came out at 0.966 in experiment [2] (setting [5]); 1.33 in experiment [2] (agonist: LPS (TLR4) 0.1 ug/mL); 0.817 in experiment [2] (setting [4]); 0.767 in experiment [2] (setting [6]); 0.575 in experiment [2] (setting [7]); 0.657 in experiment [2] (setting [8]).
As to `Br.CN1C2CCC1CC(OC(=O)C(O)c1ccccc1)C2` (stereo not given), the “IRF Lucia reporter activity” value in experiment [1] (setting [3]) was 1.12; in experiment [1] (agonist: LPS (TLR4) 0.1 ug/mL), 0.938; in experiment [1] (setting [4]) it was 1.09. For the same compound, the “NF-kB SEAP reporter activity” value was 0.922 in experiment [2] (setting [5]); 1.29 in experiment [2] (agonist: LPS (TLR4) 0.1 ug/mL); 1.01 in experiment [2] (setting [4]); 0.933 in experiment [2] (setting [6]); 1.09 in experiment [2] (setting [7]); 1.12 in experiment [2] (setting [8]).
Turning to `COC(=O)C(CCCNC(=N)N)NS(=O)(=O)c1ccc(C)cc1` (stereo not given), the “IRF Lucia reporter activity” value in experiment [1] (setting [3]) came out at 1.04; in experiment [1] (agonist: LPS (TLR4) 0.1 ug/mL), 1.04; in experiment [1] (setting [4]), 0.97. Further, the “NF-kB SEAP reporter activity” value in experiment [2] (setting [5]) came out at 0.964; in experiment [2] (agonist: LPS (TLR4) 0.1 ug/mL), 0.99; in experiment [2] (setting [4]), 0.988; in experiment [2] (setting [6]) it was 1.02; in experiment [2] (setting [7]), 0.996; in experiment [2] (setting [8]), 0.977.
